The target in this experiment is gankyrin (human (endogenous in 786-O)) (UniProt O75832). Nature of the experiment: co-IP; endogenous proteins in 786-O cells, IgG as control, detected by western blot; also in cells treated with human recombinant CCL24 (5 ng/ml, 3 days) without or with SB328437 (10 ng/ml). On the technique in general: Immunoblotting shows a protein as a band on a membrane.

Chains of the proteins cited; added tags and fusions are not shown.
UniProt O75832: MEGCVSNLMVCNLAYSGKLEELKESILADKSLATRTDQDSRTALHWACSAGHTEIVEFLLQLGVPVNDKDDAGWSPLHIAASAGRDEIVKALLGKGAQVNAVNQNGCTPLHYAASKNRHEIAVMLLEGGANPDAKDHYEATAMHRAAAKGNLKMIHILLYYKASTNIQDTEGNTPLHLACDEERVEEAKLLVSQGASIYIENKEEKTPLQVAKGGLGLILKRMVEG
UniProt P40763: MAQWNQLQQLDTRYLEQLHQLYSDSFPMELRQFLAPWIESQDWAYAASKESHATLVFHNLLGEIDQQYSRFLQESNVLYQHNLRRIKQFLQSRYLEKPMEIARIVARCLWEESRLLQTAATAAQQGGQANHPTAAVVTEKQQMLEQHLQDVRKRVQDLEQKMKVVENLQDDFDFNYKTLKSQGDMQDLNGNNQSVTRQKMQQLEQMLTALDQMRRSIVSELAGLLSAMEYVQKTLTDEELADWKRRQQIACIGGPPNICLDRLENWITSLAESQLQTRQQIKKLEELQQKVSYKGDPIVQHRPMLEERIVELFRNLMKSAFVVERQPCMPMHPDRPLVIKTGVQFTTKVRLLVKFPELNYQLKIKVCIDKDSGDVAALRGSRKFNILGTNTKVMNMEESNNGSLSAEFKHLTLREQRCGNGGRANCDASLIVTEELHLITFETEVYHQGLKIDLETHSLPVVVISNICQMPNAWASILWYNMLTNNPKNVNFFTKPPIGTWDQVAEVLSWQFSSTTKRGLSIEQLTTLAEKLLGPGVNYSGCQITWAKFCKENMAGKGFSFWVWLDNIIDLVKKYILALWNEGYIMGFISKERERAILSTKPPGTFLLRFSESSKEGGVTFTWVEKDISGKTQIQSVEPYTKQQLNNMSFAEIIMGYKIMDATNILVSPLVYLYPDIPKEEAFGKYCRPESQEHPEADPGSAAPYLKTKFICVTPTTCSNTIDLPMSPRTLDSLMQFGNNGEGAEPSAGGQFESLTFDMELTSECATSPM

No constants are given. Whether binding was seen depends on the method and setting. In cells and extracts the contact can be indirect. Some results given as binding are weak or reduced against the parent protein; the word gives no strength.

As for STAT3 (from UniProt P40763 1-770), the binding entry is reported as “binds”.

The values are drawn from PMC7015941.
